Measurements as given in the supplement of paper PMC5407854, “Inhibitor of ppGalNAc-T3-mediated O-glycosylation blocks cancer cell invasiveness and lowers FGF23 levels” (eLife, 2017).
Over roughly 1,700 compounds, “T2 sensor activation Q score (MG/GFP ratio z-score vs DMSO controls)” has its median near 0.3; the highest 2% begin near 1.9. The list shows a part of the results.

Each compound was assayed on ppGalNAc-T2 sensor (assay: T2 sensor activation Q score (MG/GFP ratio z-score vs DMSO controls) (SD units); higher = more sensor activation (inhibition of ppGalNAc-T2 glycosylation)). Settings: HEK293 sensor cells; 10 µM; 6 h.
Experimental: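 Cells were treated with compound at 10 uM for 6 h, then MG/GFP ratio was read by flow cytometry (10,000 cells per well, duplicate wells). Q = (R - R_neg)/SD_neg relative to DMSO vehicle controls; the signal rises when the glycosyltransferase is inhibited.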

How did the “T2 sensor activation Q score” value turn out when `Cc1nc2nc(C(F)(F)F)[nH]c2nc1C` was run?
The value was 0.45.

How did the “T2 sensor activation Q score” value turn out when `Cc1c2oc3c(C)ccc(C(=O)N[C@@H]4C(=O)N[C@H](C(C)C)C(=O)N5CCC[C@H]5C(=O)N(C)CC(=O)N(C)[C@@H](C(C)C)C(=O)O[C@@H]4C)c3nc-2c(C(=O)N[C@@H]2C(=O)N[C@H](C(C)C)C(=O)N3CCC[C@H]3C(=O)N(C)CC(=O)N(C)[C@@H](C(C)C)C(=O)O[C@@H]2C)c(N)c1=O` was run?
The value was -1.15.

Which “T2 sensor activation Q score” value does the source give for `O=C(Nc1ccc(Cl)c(Cl)c1)Nc1ccc([N+](=O)[O-])cn1` here?
The value was 0.15.

How did the “T2 sensor activation Q score” value turn out when `COC(=O)C(=Cc1ccccc1[N+](=O)[O-])C(=O)OC` was run?
Its value is -1.4.

Which “T2 sensor activation Q score” value does the source give for `O=C1CSCc2nc3ccccc3n21` here?
The value was 0.8.

How did the “T2 sensor activation Q score” value turn out when `Clc1nnc(NC2CCCCC2)c(Cl)c1Cl` was run?
The value was 0.15.

How did the “T2 sensor activation Q score” value turn out when `Cc1ccc(-c2cc(C(=O)O)c3ccccc3n2)c(C)c1` was run?
Its value is 0.9.

With `COc1ccccc1/C=C(\C#N)C(=O)O` as the compound, how does the “T2 sensor activation Q score” value read?
The value was 1.4.

With `C=CCNC(=O)C1COc2ccccc2O1` (stereo not given) as the compound, how does the “T2 sensor activation Q score” value read?
The value was 0.5.

Which “T2 sensor activation Q score” value does the source give for `Cn1c2ccccc2c2ccc3c(c21)C(=O)C=CC3=O` here?
The value was -0.1.

For `Cc1c2cc(O)c(=O)cc-2oc2cc(O)c(O)cc12`, which “T2 sensor activation Q score” value is on record?
The value was -3.95.

For `CCOC(=O)c1cc(-c2cccnc2)nc2c(Cl)cc(Cl)cc12`, which “T2 sensor activation Q score” value is on record?
Its value is 0.35.

`CC(C)Cn1cnc2c(N)nc3ccccc3c21` was tested. Which “T2 sensor activation Q score” value did it give?
Its value is -0.8.

`c1ccc(-c2nnc(-c3ccccc3)nn2)cc1` was tested. Which “T2 sensor activation Q score” value did it give?
Its value is 1.15.

Which “T2 sensor activation Q score” value does the source give for `O=C(Nc1ccccc1-c1ccccc1)C(=O)Nc1ccccc1-c1ccccc1` here?
Its value is 1.5.

With `O=C(c1cccnc1)c1cc(-c2ccccn2)c(=O)n2ccccc12` as the compound, how does the “T2 sensor activation Q score” value read?
Its value is 0.3.

`c1ccc(-c2n[nH]c(-c3ccccn3)n2)nc1` was tested. Which “T2 sensor activation Q score” value did it give?
The value was -1.85.

`CCCc1nc(NC(=O)c2ccccc2)nc(NC(=O)c2ccccc2)n1` was tested. Which “T2 sensor activation Q score” value did it give?
The value was 0.9.

For `COc1cccc2c1C(CO)N1C(C#N)C3CC(C(=O)O)C(C1C2)N3C` (stereo not given), which “T2 sensor activation Q score” value is on record?
Its value is -0.75.

`Nc1cnc(Nc2ccc(Br)cc2)nc1N` was tested. Which “T2 sensor activation Q score” value did it give?
The value was 0.

How did the “T2 sensor activation Q score” value turn out when `OCCCCc1nccc2c1[nH]c1ccccc12` was run?
The value was 1.15.

With `c1cc(CN2CCCNCCNCCCNCC2)ccc1CN1CCCNCCNCCCNCC1` as the compound, how does the “T2 sensor activation Q score” value read?
The value was -1.75.

How did the “T2 sensor activation Q score” value turn out when `O=C(/C=C/c1ccc2ccccc2n1)c1cc(Cl)ccc1O` was run?
The value was -0.65.

Which “T2 sensor activation Q score” value does the source give for `COC(=O)CC1(C(=O)OC)Nc2cc(Cl)c(Cl)cc2S(=O)(=O)N1O` (stereo not given) here?
The value was 0.65.

Which “T2 sensor activation Q score” value does the source give for `O=C(/C=C/C(=O)N1CCc2ccccc2C1)N1CCc2ccccc2C1` here?
The value was -0.75.

`CCOc1ccc(NC(=O)Nc2cc(C(C)C)ccc2C)cc1` was tested. Which “T2 sensor activation Q score” value did it give?
Its value is 1.15.

Which “T2 sensor activation Q score” value does the source give for `N#Cc1nnn2c1nc(N)c1c(Cl)cccc12` here?
The value was 1.5.

`COc1cc(NC(C)=O)c2ncccc2c1Br` was tested. Which “T2 sensor activation Q score” value did it give?
Its value is 0.15.

Which “T2 sensor activation Q score” value does the source give for `O=C(Nc1ccc(F)cc1)OCCOc1ccc(Br)cc1` here?
The value was 1.05.

For `CC1(C)CCSC(/C=C/c2ccccc2)=N1`, which “T2 sensor activation Q score” value is on record?
Its value is -1.15.

For `OCC1(CO)CC2(C1)CC(CO)(CO)C2`, which “T2 sensor activation Q score” value is on record?
The value was 0.65.

`Nc1nc(SCc2ccccc2)sc1C(=O)N1CCCCC1` was tested. Which “T2 sensor activation Q score” value did it give?
Its value is -0.35.

For `NCC(=O)CCC(=O)O`, which “T2 sensor activation Q score” value is on record?
The value was -1.95.

Which “T2 sensor activation Q score” value does the source give for `CCOCCc1c(O)nc(SC)[nH]c1=O` here?
Its value is 0.65.

`Cn1c(=O)c2[nH]c(COc3ccc(C(C)(C)C)cc3)nc2n(C)c1=O` was tested. Which “T2 sensor activation Q score” value did it give?
Its value is 0.25.

For `COc1ccc2c(c1)C(=O)C1NC(=O)NC(=O)C1(Br)N2` (stereo not given), which “T2 sensor activation Q score” value is on record?
The value was 1.15.

Which “T2 sensor activation Q score” value does the source give for `NC(=O)c1cc2c3ccccc3ccn2c1-c1ccccc1` here?
The value was 1.8.

`COc1cccc(/C=C/c2nccc3ccccc23)c1OC` was tested. Which “T2 sensor activation Q score” value did it give?
The value was 1.25.

`CC1CO/C(=C2\C(=O)OCC2C)C1` (stereo not given) was tested. Which “T2 sensor activation Q score” value did it give?
Its value is -0.65.

`CC1CC(C)(C)NC2(CCCC2)N1` (stereo not given) was tested. Which “T2 sensor activation Q score” value did it give?
The value was -0.55.

With `COc1ccc2c(c1)CCN1C2CCN2C(=O)CCC21` (stereo not given) as the compound, how does the “T2 sensor activation Q score” value read?
The value was 0.9.

`COC(=NC(C)C)NC(C)C` was tested. Which “T2 sensor activation Q score” value did it give?
Its value is -0.75.

For `Cc1nccnc1Sc1ccccc1`, which “T2 sensor activation Q score” value is on record?
Its value is -0.2.

Which “T2 sensor activation Q score” value does the source give for `CC(C)n1cnc2c(=S)nc[nH]c21` here?
The value was -0.3.

How did the “T2 sensor activation Q score” value turn out when `COc1ccc2c(n1)Sc1nc3ccccc3nc1N2` was run?
The value was -5.6.

With `O=C(O)C1C2OC3C(OC(=O)C31)C2Br` (stereo not given) as the compound, how does the “T2 sensor activation Q score” value read?
Its value is 0.

`Cc1ccn(C)c(=N)c1` was tested. Which “T2 sensor activation Q score” value did it give?
Its value is 0.15.

With `C#CCSc1nnnn1-c1ccc(Br)c(C)c1` as the compound, how does the “T2 sensor activation Q score” value read?
The value was -1.35.

With `Cn1c(N)c(C(=O)/C=C/c2ccccc2)c(=O)[nH]c1=O` as the compound, how does the “T2 sensor activation Q score” value read?
Its value is 0.45.

For `NC1=NC(c2ccc(Cl)cc2)N(c2ccc(S(N)(=O)=O)cc2)C(N)=N1` (stereo not given), which “T2 sensor activation Q score” value is on record?
Its value is 0.3.

How did the “T2 sensor activation Q score” value turn out when `Oc1ccc2ccccc2c1N=Nc1ccc(F)cc1` was run?
Its value is 0.05.

`Cc1nnc(-n2cccc2)s1` was tested. Which “T2 sensor activation Q score” value did it give?
The value was 1.4.

Which “T2 sensor activation Q score” value does the source give for `O=C(C=Cc1ccccc1Cl)c1ccc(O)cc1` here?
Its value is 0.75.

How did the “T2 sensor activation Q score” value turn out when `COc1cc2c(NCCCCCO)ncnc2c(OC)c1OC` was run?
Its value is 0.4.

Which “T2 sensor activation Q score” value does the source give for `OC(c1cc(-c2ccc(Cl)cc2)nc2ccccc12)C1CCCCN1` (stereo not given) here?
The value was 1.2.

`O=C1/C(=C\c2ccc([N+](=O)[O-])cc2)CCc2ccccc21` was tested. Which “T2 sensor activation Q score” value did it give?
Its value is 0.65.

For `CNc1ncnc2c1cnn2C1CCCCO1` (stereo not given), which “T2 sensor activation Q score” value is on record?
The value was 0.05.

For `NC(=O)c1ccccc1NC(=O)c1ccccc1Cl`, which “T2 sensor activation Q score” value is on record?
The value was 0.55.

`COc1ccc(Nc2cc(C)nc(N)n2)cc1` was tested. Which “T2 sensor activation Q score” value did it give?
Its value is -0.15.

`O=P(O)(O)c1cc(-c2ccccc2)oc1-c1ccccc1` was tested. Which “T2 sensor activation Q score” value did it give?
The value was 0.85.

`Cc1nc(NCc2ccccc2)c2cc[nH]c2n1` was tested. Which “T2 sensor activation Q score” value did it give?
The value was 0.3.

How did the “T2 sensor activation Q score” value turn out when `COc1cc(C(=O)C(=O)c2cc(OC)c(O)c(OC)c2)cc(OC)c1O` was run?
Its value is 0.45.

With `Cc1cc(O)c(C(C)C)cc1NC(=O)Nc1cccc2ccccc12` as the compound, how does the “T2 sensor activation Q score” value read?
Its value is 0.5.

With `CC(=O)[C@@]1(O)[C@H](C)C[C@H]2[C@@H]3C=C(C)C4=Cc5c(cnn5-c5ccccc5)C[C@]4(C)[C@H]3[C@@H](O)C[C@@]21C` as the compound, how does the “T2 sensor activation Q score” value read?
The value was 0.4.

How did the “T2 sensor activation Q score” value turn out when `COc1cc(Nc2c(C#N)cnc3cc(OCCCN4CCN(C)CC4)c(OC)cc23)c(Cl)cc1Cl` was run?
The value was -1.6.

`CC12CCC(C(NC(=S)NN)C1=O)C2(C)C` (stereo not given) was tested. Which “T2 sensor activation Q score” value did it give?
The value was 0.6.

How did the “T2 sensor activation Q score” value turn out when `Cc1cnc2c(N)cc(C)c(C)c2c1` was run?
Its value is 1.15.

`CC(C)(C)c1ccc(OCC(=O)O)cc1` was tested. Which “T2 sensor activation Q score” value did it give?
Its value is 0.35.

With `c1ccc(-n2c3ccccc3c3ccccc32)cc1` as the compound, how does the “T2 sensor activation Q score” value read?
Its value is -0.3.

With `Cc1cc2cc3n(c2nn1)N=C(Cl)CC3` as the compound, how does the “T2 sensor activation Q score” value read?
The value was 0.35.

`O=C(Nc1cccc([N+](=O)[O-])c1)c1ccc2ccccc2c1O` was tested. Which “T2 sensor activation Q score” value did it give?
Its value is 1.55.

For `CC(=NNC(N)=O)c1ccc(Cl)c(-n2cccc2)c1`, which “T2 sensor activation Q score” value is on record?
The value was 0.6.

How did the “T2 sensor activation Q score” value turn out when `c1cc2c3c(cccc3c1)NC1(CCC3(CC1)Nc1cccc4cccc(c14)N3)N2` was run?
Its value is 1.3.

Which “T2 sensor activation Q score” value does the source give for `CCCCCn1cnc2c(=S)nc(N)[nH]c21` here?
Its value is 0.5.

How did the “T2 sensor activation Q score” value turn out when `N#CN=CN1CC=C(c2ccc(Cl)cc2)CC1` was run?
Its value is 0.6.

Which “T2 sensor activation Q score” value does the source give for `COc1ccc(C2=NC(=O)NC2c2ccc(OC)cc2)cc1` (stereo not given) here?
The value was 1.25.

`NCc1c(O)ccc2ccccc12` was tested. Which “T2 sensor activation Q score” value did it give?
Its value is -1.

`O=C1OCC/C1=C\NCCCCCCCCN/C=C1\CCOC1=O` was tested. Which “T2 sensor activation Q score” value did it give?
Its value is 0.8.

How did the “T2 sensor activation Q score” value turn out when `CCCCOc1nc2c(c(=O)n(C)c(=O)n2C)n1C` was run?
Its value is 1.8.

`CCOc1ccc2sc(NS(=O)(=O)c3ccc(N)cc3)nc2c1` was tested. Which “T2 sensor activation Q score” value did it give?
The value was -0.75.
